Results: PubChem BioAssay AID493014 (National Center for Advancing Translational Sciences (NCATS), 2011)
Out of some 340,000 compounds screened, about 170 (0.05%) were called active. Inconclusive results, whose numbers are uncertain, are shown with a selection of clear calls. Calls follow the shape of the dose curve; as a rule, active = well fitted inhibition curve with a large enough effect in the signal ratio, with a control signal flat (not every such curve was filed as active); inconclusive = small, poorly fitted or top-dose-only effect, or effect the other way, or a change in a side signal; inactive = flat fitted curve, though single readings scatter; the % refers to the signal ratio. A potency beside an inconclusive call is a rough fit, not a confirmed value.

Test: qHTS Assay to Find Inhibitors of Chronic Active B-Cell Receptor Signaling;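 as to activity change, negative = inhibition: plate controls were basal doxycycline-induced cells for no effect and cells given 10 µM MG132 for full effect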
Details: ABC-DLBCL IkBa-CBG/CBR reporter, luminescence ratio (green luciferase fused to IkBa over red control in TMD8 lymphoma cells), 4 h; activity change, negative = inhibition: at 46.1 µM (top of the series) unless noted
Procedure, shortened: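 TMD8 human ABC-DLBCL cells with doxycycline-inducible IκBα–green luciferase fusion and unfused red luciferase, in 0.5% FBS medium; compounds up to 46 uM, 4 h at 37C. Green/red luminescence ratio, filter-overlap corrected, fitted to concentration-response curves.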
Potency is read from the fitted curve at half-maximal effect.

| SMILES | activity change, negative = inhibition | Potency |
| --- | --- | --- |
| Cc1ccc(CCNC(=O)c2ccc(CSCc3ccccc3C)o2)cc1 | inactive: -5.61% |  |
| Cc1oc2ccc(OCc3ccccc3Cl)cc2c1C(=O)O | inconclusive: 4.88% |  |
| Cc1cccc2sc(NC(=O)[C@H](C)N3C(=O)C4CC=CCC4C3=O)nc12 (stereo partly drawn) | inconclusive: 11.6% |  |
| Cc1ccc(NC(=S)NNc2ncc(C(F)(F)F)cc2Cl)cc1 | inactive: 9.28% |  |
| O=C(c1c(Cl)nc2sccn12)N(C(=O)c1c(Cl)nc2sccn12)c1ccc(Cl)cn1 | inconclusive: 0.637% |  |
| Cc1cc(Cl)n2c(nc3ccccc32)c1C#N |  | inconclusive: 3.55 µM [falling, single point] |
| COc1cccc(C(=O)NCC(=O)N/N=C/c2ccc3c(c2)OCO3)c1 |  | inconclusive: 10 µM [falling, partial curve, poor fit] |
| Cn1nnc2cc(C(=O)Nc3ccccc3F)ccc21 |  | inconclusive: 22.4 µM [falling, single point] |
| CC(C(=O)N1CCc2ccccc21)N1CCN(c2ccccn2)CC1 (stereo not drawn) | inconclusive: 1.46% |  |
| Cc1cc(C)c2nc(NC(=O)c3ccc(OCC4CCCO4)cc3)sc2c1 (stereo not drawn) | inactive: -7.58% |  |
| COc1cc2ccnc(Cc3cccc(OC)c3OC)c2cc1OC | inactive: -17.2% |  |
| COc1ccccc1NS(=O)(=O)c1cc(NC(=O)COc2ccccc2)ccc1N1CCOCC1 | inconclusive: -9.42% |  |
| O=[N+]([O-])c1ccc(/C=N/N=C/c2ccc([N+](=O)[O-])o2)o1 |  | inconclusive: 15.8 µM [falling, single point] |
| N=c1oc2ccccc2cc1C(=O)Nc1ccc(F)cc1 | inconclusive: -14.1% |  |
| Cc1cc(C)c(C)c(OCCNCc2ccccc2)c1 | inactive: 1.64% |  |
| CCOC(=O)c1c(NC(=O)CN(CC)CC)sc2c1CCC2 | inactive: 5.14% |  |
| COc1ccccc1CNC(=O)CS(=O)Cc1nc(-c2ccc(OC)c(OC)c2)oc1C (stereo not drawn) | inconclusive: 10% |  |
| O=C1C(Cl)=C(N2CCOCC2)C(=O)N1c1cccc(C(F)(F)F)c1 | inconclusive: -14.2% |  |
| O=C(Nc1ccc(Cl)c(Cl)c1)Nc1ccccc1C(=O)O |  | inconclusive: 4.47 µM [falling, partial curve] |
| Fc1cccc(CNc2ncnc3ccc(-c4cccnc4)cc23)c1 | inconclusive: -13.9% |  |
| O=C(CN1C(=O)c2ccccc2S1(=O)=O)NCc1ccccc1Cl | inconclusive: 3.16% |  |
| CCN(CC)C(=O)c1ccc(S(=O)(=O)Cc2ccc(C)cc2)c([N+](=O)[O-])c1 | inconclusive: 6.05% |  |
| CC1CCCN(CCCNC(=O)c2ccc3c(c2)N(Cc2ccc(F)cc2)C(=O)c2ccccc2S3=O)C1 (stereo not drawn) | inconclusive: -5.97% |  |

Reformatted: 2 of the compounds above
SMILES | activity change, negative = inhibition | Potency
O=[N+]([O-])c1ccc(/C=N/N=C/c2ccc([N+](=O)[O-])o2)o1 |  | inconclusive: 15.8 µM [falling, single point]
O=C(Nc1ccc(Cl)c(Cl)c1)Nc1ccccc1C(=O)O |  | inconclusive: 4.47 µM [falling, partial curve]
